The source of these data is PMC12647448.

Sequences of proteins named here, by UniProt entry; tags and fusion partners are left off.
UniProt Q13283: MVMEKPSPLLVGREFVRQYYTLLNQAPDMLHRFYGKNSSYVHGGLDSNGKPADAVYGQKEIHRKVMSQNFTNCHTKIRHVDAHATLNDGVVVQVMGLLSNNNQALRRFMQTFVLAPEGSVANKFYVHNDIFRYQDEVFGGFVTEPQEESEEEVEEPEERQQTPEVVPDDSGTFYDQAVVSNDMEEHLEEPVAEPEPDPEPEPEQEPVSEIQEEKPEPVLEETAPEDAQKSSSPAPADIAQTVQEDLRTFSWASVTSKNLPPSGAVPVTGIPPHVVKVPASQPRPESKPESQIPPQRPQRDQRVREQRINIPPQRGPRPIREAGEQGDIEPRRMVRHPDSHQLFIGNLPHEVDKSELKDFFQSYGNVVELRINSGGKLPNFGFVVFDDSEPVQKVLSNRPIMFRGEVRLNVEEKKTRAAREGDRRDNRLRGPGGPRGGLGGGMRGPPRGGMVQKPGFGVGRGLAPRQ
UniProt P06730: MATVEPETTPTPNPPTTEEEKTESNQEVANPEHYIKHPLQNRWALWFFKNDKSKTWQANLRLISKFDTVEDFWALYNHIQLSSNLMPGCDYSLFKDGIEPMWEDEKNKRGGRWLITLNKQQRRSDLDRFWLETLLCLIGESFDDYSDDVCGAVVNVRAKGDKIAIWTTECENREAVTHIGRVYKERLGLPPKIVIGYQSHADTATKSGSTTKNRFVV

These are yes or no findings as the source states them, for the method shown. Binding seen in cells or lysates may run through a third protein. Some entries that bind do so weakly or less than the wild type.

The assay addresses GTPase activating protein (SH3 domain) binding protein 1 (G3BP1) (human (endogenous in U-2 OS)) (UniProt Q13283). As to the kind of experiment: co-IP; U-2 OS cells with or without stress (arsenite, heat shock, UV); which protein was precipitated is not told in the text shown.

Take eIF4E (from UniProt P06730 1-217): the binding entry is “binds”.
